Assay results reported in patent US20160216264A1 (WASHINGTON UNIVERSITY, published 2016).
These are yes or no findings as the source states them, for the method shown. Some results given as binding are weak or reduced against the parent protein; the word gives no strength.

T1: peptide 1 (synthetic peptide corresponding to the epitope for mAb 01D10) (human)
T1 sequence (peptide): PSLVYRPDVDPEV

T2: peptide 2 (synthetic peptide corresponding to the epitope for mAb 12H06) (human)
T2 sequence (peptide): RPYYQGLIDKYC


Assays:
[1] = target: T1, peptide 1 (synthetic peptide corresponding to the epitope for mAb 01D10) (human); experiment: peptide preincubation (100 µg/ml), inhibition of immunoblot staining
[2] = target: T2, peptide 2 (synthetic peptide corresponding to the epitope for mAb 12H06) (human); experiment: as above

Binder	binding [1]	binding [2]
mouse monoclonal anti-MIOX antibody 01D10 (antibody, IgG2b, V domains shown, they run a few residues into the constant regions; Biotinylated when used as capping antibody in the sandwich immunoassay; also called mAb 01D10) VH: QVQLQQSGPELVKPGASVKISCKASGYSFTSYYIHWVKQRPGQGLEWIGWIYPGSGNSKYNEKFKGKATLTADTSSSTAYMQLSSLTSEDSAVYYCARDGSTYNWNFDVWGTGTTVTVSS VL: DIQMTQSPASLSASVGETVTITCRTSGNIHNYLAWYQQKQGKSPQLLVYNAKTLADGVPSRFSGSGSGTQYSLKINSLQPEDFGSYYCQHFWSIPFTFGSGTKLEIKR	binds	
mouse monoclonal anti-MIOX antibody 12H06 (antibody, IgG2b, V domains shown, the VH entry runs a few residues into CH1; also called mAb 12H06) VH: QVQLQQPGAELVRPGTSVKLSCKASGYTFTSYWMHWVKQRPGQGLEWIGLIDPSDSYTNYNQKFKGKATLTVDTSSSTASMQLSSLTSEDSAVYYCVRTYYHSSYFFAYWGQGTLVTVSS VL: DIVVTQSPASFAVSLGQRATISCRASKSVSTSGYSYINWYQQKPGQPPKLLIYLASNLESGVPARFSGSGSGTDFTLNIHPVEEEDAATYYCQHSRELPLTFGAGTRLELK		binds
